# Experimental data published in the supplement of paper PMC12067093, “Discovery and optimisation of a covalent ligand for TRIM25 and its application to targeted protein ubiquitination” (Chemical Science, 2025).
# Some of the results follow.
# Columns and labels:
# [1] = target: CLIC1_O00299_191_LHIVQVVCK (UniProt O00299); experiment: probe-labelled cysteine peptide fold change vs DMSO (competition) (log2 fold change); higher = less target engagement (more negative = stronger competition); conditions: THP-1, incubation time: 4 h
# [2] = target: CLIC1_O00299_191_LHIVQVVCKK (UniProt O00299); experiment: as above; conditions: THP-1, incubation time: 4 h
# 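Note: competitive chemoproteomic profiling in live THP-1 cells with an iodoacetamide desthiobiotin (IA-DTB) probe, comparing probe-labelled peptide intensities in compound-treated cells against DMSO-treated controls.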
smiles,measurement,setting,value
CC1Cc2ccccc2N1C(=O)C1CCCN(C(=O)CCl)C1 (mixture of isomers) [TRIM25 ligand 11 (diastereomer mixture)],probe-labelled cysteine peptide fold change,[1]; 10 µM,-0.0185
same,probe-labelled cysteine peptide fold change,[1]; 50 µM,-0.0382
same,probe-labelled cysteine peptide fold change,[2]; 10 µM,-0.428
same,probe-labelled cysteine peptide fold change,[2]; 50 µM,-0.575
